Laboratory results: PubChem BioAssay AID1347076 (National Center for Advancing Translational Sciences (NCATS), 2019)
The whole screen tested about 400,000 compounds, of which about 13,000 (3.2%) were called active. Inconclusive results, whose numbers are uncertain, are shown with a selection of clear calls. Calls follow the shape of the dose curve; as a rule, active = well fitted cell-killing curve with a large enough effect; inconclusive = small, poorly fitted or top-dose-only effect, or effect the other way; inactive = flat fitted curve, though single readings scatter. Potencies beside an inconclusive call are fits to weak or partial responses and may not hold up.
Potency is read from the fitted curve at half-maximal effect.

Experiment: qHTS assay for MDR1-selective chemotherapeutics: Primary screen using the drug-selected MDR subline cells KB-V1; also: nearly all actives have a fitted effect of over 60% in size
Settings: KB-V1 MDR cells viability, CellTiter-Glo, 72 h; series mostly up to 46.1 µM
In short: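 KB-V1 cells (P-gp-expressing MDR subline of KB-3-1) in phenol-red-free DMEM with 10% FBS were exposed to library compounds over a concentration series for 72 h at 37 degrees C. Viability read by CellTiter-Glo luminescence; concentration-effect curves fitted after normalization.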
For `Cc1ccc2c(c1)C1CN(C)CCC1N2S(=O)(=O)c1cc(C(F)(F)F)ccc1Cl` (stereo not drawn), the Potency was inconclusive: 29.1 µM [rising, single point]. In the case of `COc1cccc(CCC(=O)N2CCC(n3nccc3NC(=O)CC(C)C)CC2)c1`, the Potency is reported as “inactive”. With `O=C(CCNC(=O)Cn1ccc2ccccc2c1=O)NCCCN1CCN(c2ccccc2F)CC1` the Potency was “inactive”. For `COc1cc(/C=C(\NC(=O)c2ccccc2)C(=O)NCC(=O)O)c([N+](=O)[O-])cc1OC`, the Potency was “inactive”. For `O=S(=O)(c1ccc(-c2ccon2)s1)N1CCN(c2ccccn2)CC1`, the Potency was “inactive”. With `COc1ccc(-c2noc(CCCc3ccccc3)n2)cc1OC` the Potency was inconclusive: 20.6 µM [cytotoxic, single point]. In the case of `CCOC(=O)c1c(C)c(-c2ccccc2)n(CC(=O)NC2CCCCCC2)c1C`, the Potency is reported as “inactive”. With `Cc1cccc(NC(=O)C2(c3cccs3)CCOCC2)n1` the Potency was active: 16.4 µM. With `Cc1cnc(C(=O)OCC(=O)N2C(C)CCCC2C)cn1` (stereo not drawn) the Potency was “inactive”. In the case of `CC(C)c1ccc(C2CC(c3ccc(Br)cc3)=NN2C(N)=S)cc1` (stereo not drawn), the Potency is reported as inconclusive: 16.4 µM [cytotoxic, single point]. With `CC(=O)Nc1cccc(NC(=O)C(=O)c2cn(CC(=O)N3CCCCC3)c3ccccc23)c1` the Potency was “inactive”. For `O=C(Nc1cccc(Cl)c1)c1ccc(NC2=NC3CS(=O)(=O)CC3S2)cc1` (stereo not drawn), the Potency was inconclusive: 20.6 µM [rising, single point]. For `COc1ccc(CC(=O)N(C)Cc2ccc(C(C)(C)C)cc2)cc1S(=O)(=O)N1CCOCC1`, the Potency was inconclusive: 32.6 µM [cytotoxic, single point]. In the case of `CCOC(=O)c1nnn(CC(=O)N2N=C(c3ccc(Cl)cc3)CC2c2ccccc2)c1C(=O)OCC` (stereo not drawn), the Potency is reported as inconclusive: 5.17 µM [cytotoxic, partial curve, poor fit]. In the case of `Cc1ccc(C(C(=O)NC2CCCCC2)N(Cc2ccccc2)C(=O)Cc2c[nH]c3ccccc23)o1` (stereo not drawn), the Potency is reported as inconclusive: 29.1 µM [cytotoxic, single point]. With `CCc1ccc(N2C(=O)CSC23C(=O)N(Cc2cccc(OC)c2)c2ccccc23)cc1` (stereo not drawn) the Potency was active: 10.3 µM. With `Cn1cc(C2=C(c3ccc(Cl)cc3Cl)C(=O)NC2=O)c2ccccc21` the Potency was inconclusive: 18.4 µM [cytotoxic, partial curve]. For `O=C(COC(=O)/C=C/c1ccc([N+](=O)[O-])cc1)Nc1ccc2[nH]c(=O)[nH]c2c1`, the Potency was “inactive”. For `CCn1c(O)c(N=NC(=S)NCC2CCCO2)c2ccccc21` (stereo not drawn), the Potency was inconclusive: 29.1 µM [cytotoxic, single point]. With `CC(C)(CNC(=O)CC1C(=O)NCCN1Cc1cccc(F)c1F)N1CCOCC1` (stereo not drawn) the Potency was inconclusive: 14.6 µM [rising, partial curve, poor fit]. For `COCCNC(=O)c1ccc(C(=O)C(=O)c2ccccc2)cc1`, the Potency was inconclusive: 23.1 µM [rising, partial curve, poor fit]. With `O=c1cc(O)nc(SCc2ccccc2)n1-c1ccccc1` the Potency was inconclusive: 32.6 µM [rising, partial curve, poor fit]. In the case of `O=C(NCC1CCCO1)c1coc2nc3ccccc3nc12` (stereo not drawn), the Potency is reported as inconclusive: 16.4 µM [cytotoxic, single point]. For `Cc1ccccc1NC(=O)NCCCCc1ccccc1`, the Potency was inconclusive: 32.6 µM [cytotoxic, single point]. With `CCCCNCc1cc(OCC)c(OCC)cc1Br` the Potency was inconclusive: 6.51 µM [cytotoxic, full curve, poor fit]. For `CCN(CC)CCn1c(NC(=O)c2ccc(Cl)cc2)nc2ccccc21`, the Potency was inconclusive: 10.3 µM [cytotoxic, partial curve, poor fit]. In the case of `CN(C)C(=O)c1ccc(-c2cc3onc(-c4ccccc4)c3c(=O)n2C)cc1`, the Potency is reported as inconclusive: 0.92 µM [cytotoxic, partial curve, poor fit]. With `CCC1CCCCN1C(=O)CSc1nc2c([nH]c3ccccc32)c(=O)n1C` (stereo not drawn) the Potency was active: 23.1 µM. For `COc1ccc2c(c1)CCc1c(C(=O)Nc3c(C)n(C)n(-c4ccccc4)c3=O)noc1-2`, the Potency was active: 18.4 µM. With `Cc1ccc(N2C(=O)/C(=C\c3ccc(C(C)C)cc3)N=C2SC2CCOC2=O)cc1` (stereo not drawn) the Potency was inconclusive: 5.8 µM [cytotoxic, partial curve, poor fit]. With `CCOC(=O)C1=NN(c2ccccc2)C(c2ccccc2)CC1=O` (stereo not drawn) the Potency was inconclusive: 20.6 µM [cytotoxic, partial curve, poor fit]. For `CC(=O)OCC(=O)C12OC(C)(C)OC1CC1C3CC=C4CC(O)CCC4(C)C3CCC12C` (stereo not drawn), the Potency was “inactive”. In the case of `O=C1CC(C(=O)Nc2ccccc2)C2(CCCCC2)O1` (stereo not drawn), the Potency is reported as “inactive”. In the case of `CCN1CC(=O)Nc2cc(S(=O)(=O)N3CCOCC3)ccc21`, the Potency is reported as inconclusive: 16.4 µM [rising, single point]. For `Cc1ccc2c(C)c(C(=O)N(Cc3cccs3)C3CCS(=O)(=O)C3)oc2c1` (stereo not drawn), the Potency was inconclusive: 18.4 µM [cytotoxic, single point]. For `O=S(=O)(c1ccccc1)N1CCN(S(=O)(=O)N2CCCCCC2)CC1`, the Potency was inconclusive: 20.6 µM [cytotoxic, partial curve, poor fit]. With `COCCNS(=O)(=O)c1cc(-c2nn(C)c(=O)c3ccccc23)ccc1C` the Potency was inconclusive: 2.31 µM [cytotoxic, partial curve, poor fit]. For `CC(C)c1ccc(N(CC(=O)NC2CCCC2)C(=O)CCC(=O)Nc2ccccn2)cc1`, the Potency was inconclusive: 8.2 µM [cytotoxic, partial curve]. In the case of `Cc1ccc(-c2ccc(SCC(=O)NC3CCCCC3)nn2)cc1`, the Potency is reported as inconclusive: 16.4 µM [cytotoxic, partial curve, poor fit]. With `Cc1nnc(N2CCN(C(=O)NC(C)C)CC2)c2nn(-c3ccccc3)c(C)c12` the Potency was “inactive”. In the case of `O=C(Nc1nnc(Cc2ccccc2)s1)C1CCN(C(=O)c2ccco2)CC1`, the Potency is reported as “inactive”. With `COc1cc2c(C(=O)NCc3ccc(C)o3)cn(CC(C)C)c(=O)c2cc1OC` the Potency was inconclusive: 25.9 µM [cytotoxic, single point]. With `CCN(CC)c1ccc(NC(=O)c2cnc3c(-c4ccccc4)c(C)nn3c2C)c(C)c1` the Potency was “inactive”.
